According to the supplement of paper PMC10849652:
The other results are listed elsewhere or left out. Residues, ends and D or L forms follow the SMILES beside them. *: point of attachment. Cbz = O=C(OCc1ccccc1)*

Chains of the proteins cited; added tags and fusions are not shown. Lines headed by an entry give the natural chain unless they say otherwise; changes in a name come on top.
UniProt Q5VW38: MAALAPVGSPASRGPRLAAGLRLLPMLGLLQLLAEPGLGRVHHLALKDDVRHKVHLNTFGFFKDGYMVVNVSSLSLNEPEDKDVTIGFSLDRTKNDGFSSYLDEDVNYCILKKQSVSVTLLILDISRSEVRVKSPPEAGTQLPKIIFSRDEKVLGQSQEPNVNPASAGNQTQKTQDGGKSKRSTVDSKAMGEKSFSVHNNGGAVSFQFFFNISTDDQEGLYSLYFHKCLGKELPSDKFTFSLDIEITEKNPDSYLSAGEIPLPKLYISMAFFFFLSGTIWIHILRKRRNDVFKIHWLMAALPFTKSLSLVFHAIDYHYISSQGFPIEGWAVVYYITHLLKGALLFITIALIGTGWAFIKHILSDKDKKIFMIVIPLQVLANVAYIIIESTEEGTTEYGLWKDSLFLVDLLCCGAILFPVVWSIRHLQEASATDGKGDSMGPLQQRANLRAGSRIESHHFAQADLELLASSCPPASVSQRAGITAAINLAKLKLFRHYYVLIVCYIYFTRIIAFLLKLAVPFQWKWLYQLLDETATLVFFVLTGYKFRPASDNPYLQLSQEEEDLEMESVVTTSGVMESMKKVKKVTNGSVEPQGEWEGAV
UniProt Q8N335: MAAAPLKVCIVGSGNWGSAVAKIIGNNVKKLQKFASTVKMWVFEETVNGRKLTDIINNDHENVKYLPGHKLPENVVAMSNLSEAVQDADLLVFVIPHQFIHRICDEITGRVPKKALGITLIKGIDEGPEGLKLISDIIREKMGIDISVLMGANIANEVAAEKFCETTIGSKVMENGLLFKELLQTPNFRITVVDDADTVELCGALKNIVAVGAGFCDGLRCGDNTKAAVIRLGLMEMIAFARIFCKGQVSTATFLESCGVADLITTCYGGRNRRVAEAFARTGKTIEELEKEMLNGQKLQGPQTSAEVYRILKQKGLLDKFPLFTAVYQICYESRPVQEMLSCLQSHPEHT
UniProt Q9UJJ9: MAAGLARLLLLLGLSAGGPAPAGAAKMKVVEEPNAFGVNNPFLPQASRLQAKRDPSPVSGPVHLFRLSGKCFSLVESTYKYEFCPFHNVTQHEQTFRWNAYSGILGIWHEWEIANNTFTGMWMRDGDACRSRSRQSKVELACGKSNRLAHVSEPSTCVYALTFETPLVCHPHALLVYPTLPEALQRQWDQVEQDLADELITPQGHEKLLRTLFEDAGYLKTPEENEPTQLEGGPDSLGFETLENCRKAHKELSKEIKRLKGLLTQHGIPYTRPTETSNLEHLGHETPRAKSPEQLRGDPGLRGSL
UniProt Q12849: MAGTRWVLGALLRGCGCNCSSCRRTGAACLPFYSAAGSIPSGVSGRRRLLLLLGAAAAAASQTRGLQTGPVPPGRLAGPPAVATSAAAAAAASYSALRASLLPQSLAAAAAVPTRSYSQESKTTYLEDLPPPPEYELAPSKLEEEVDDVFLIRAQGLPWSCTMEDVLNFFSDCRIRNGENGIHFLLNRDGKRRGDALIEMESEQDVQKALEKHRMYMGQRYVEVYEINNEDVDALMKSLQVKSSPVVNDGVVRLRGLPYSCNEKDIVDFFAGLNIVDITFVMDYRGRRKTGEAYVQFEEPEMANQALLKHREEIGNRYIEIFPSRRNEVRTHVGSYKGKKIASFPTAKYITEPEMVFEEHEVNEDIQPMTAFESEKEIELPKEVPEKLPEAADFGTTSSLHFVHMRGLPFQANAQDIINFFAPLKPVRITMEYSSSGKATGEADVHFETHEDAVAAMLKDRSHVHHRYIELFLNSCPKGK
UniProt Q9BRT9, whole entry, looked up: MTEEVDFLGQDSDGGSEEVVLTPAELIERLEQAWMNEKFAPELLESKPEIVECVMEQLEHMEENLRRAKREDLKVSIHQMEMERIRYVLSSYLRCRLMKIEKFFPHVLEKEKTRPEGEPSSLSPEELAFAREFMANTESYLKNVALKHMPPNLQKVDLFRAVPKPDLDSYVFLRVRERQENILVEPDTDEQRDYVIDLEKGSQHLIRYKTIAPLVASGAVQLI
UniProt P00505: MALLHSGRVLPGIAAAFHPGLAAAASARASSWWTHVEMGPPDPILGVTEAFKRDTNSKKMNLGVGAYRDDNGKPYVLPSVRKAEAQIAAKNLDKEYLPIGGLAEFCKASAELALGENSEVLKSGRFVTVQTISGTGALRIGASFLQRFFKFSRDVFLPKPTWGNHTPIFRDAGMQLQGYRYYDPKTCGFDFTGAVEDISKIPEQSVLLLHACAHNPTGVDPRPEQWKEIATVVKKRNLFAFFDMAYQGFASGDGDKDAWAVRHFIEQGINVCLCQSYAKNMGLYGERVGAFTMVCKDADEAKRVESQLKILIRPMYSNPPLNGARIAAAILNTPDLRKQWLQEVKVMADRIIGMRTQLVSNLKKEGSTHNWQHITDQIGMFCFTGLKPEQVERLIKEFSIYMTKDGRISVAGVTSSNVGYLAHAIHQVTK
UniProt Q9UBQ7: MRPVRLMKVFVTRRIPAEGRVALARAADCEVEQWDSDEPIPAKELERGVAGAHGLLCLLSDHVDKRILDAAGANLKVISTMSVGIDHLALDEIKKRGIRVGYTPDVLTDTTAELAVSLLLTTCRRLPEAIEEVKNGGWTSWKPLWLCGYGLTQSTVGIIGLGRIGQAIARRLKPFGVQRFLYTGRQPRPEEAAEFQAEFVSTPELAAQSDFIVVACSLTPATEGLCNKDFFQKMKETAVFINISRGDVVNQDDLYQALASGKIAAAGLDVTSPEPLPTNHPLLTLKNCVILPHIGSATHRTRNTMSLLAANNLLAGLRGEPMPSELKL
UniProt Q9UHW5, whole entry, looked up: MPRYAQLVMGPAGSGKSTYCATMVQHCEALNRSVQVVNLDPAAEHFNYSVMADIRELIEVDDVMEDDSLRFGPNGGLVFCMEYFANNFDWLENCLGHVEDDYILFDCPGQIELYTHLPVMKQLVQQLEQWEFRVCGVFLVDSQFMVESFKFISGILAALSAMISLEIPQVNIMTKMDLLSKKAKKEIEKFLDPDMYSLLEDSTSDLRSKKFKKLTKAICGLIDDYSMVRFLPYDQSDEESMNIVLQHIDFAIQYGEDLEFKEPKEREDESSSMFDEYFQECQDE

Assays:
Experiment in all cases: log2 fold change, soluble protein after heating vs DMSO (PISA); higher = thermal stabilisation; K562 cells, 10 uM, 30 min; active = over 0.2 and 3.5 SD of the protein, either way, in both replicates (recomputed)
IRAK-1-4 Inhibitor I = compound: C1COCCN1CCN2C3=CC=CC=C3N=C2NC(=O)C4=CC(=CC=C4)[N+](=O)[O-] [IRAK-1-4 Inhibitor I]
Outline: (§1)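 K562 cells at 2×10^6 cells/mL were treated for 30 min with 10 μM compound, and aliquots were heated for 3 min over 48°C-58°C before pooling. Extraction used PBS with 0.5% NP-40 at 4°C, and soluble protein was the supernatant after 21,000xg for 90 min, measured by TMTpro 16plex LC-MS/MS with channel sums equalised. Thermal stability values, relative to control samples and from duplicates, are log2 fold changes.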

ibrutinib = compound: C=CC(=O)N1CCC[C@@H](n2nc(-c3ccc(Oc4ccccc4)cc3)c3c(N)ncnc32)C1 [ibrutinib]
Outline: as §1

[1] = compound: CC(=O)c1cnc2ccc(-c3cc(Cl)c(O)c(Cl)c3)nc2c1N[C@H]1CC[C@H](CN(C)C)CC1
Outline: as §1

ralimetinib = compound: CC(C)(C)Cn1c(N)nc2ccc(-c3[nH]c(C(C)(C)C)nc3-c3ccc(F)cc3)nc21 [ralimetinib]
Outline: as §1

[2] = compound: CC(C)(O)CC(=O)NCCn1ccc2ncnc(Nc3ccc(Oc4cccc(C(F)(F)F)c4)c(Cl)c3)c21
Outline: as §1

[3] = compound: CC(C)C1=C2N=C(C=C(N2N=C1)NCC3=CC=CC=C3)NCCCCCCN
Outline: as §1

[4] = compound: CC(C)C[C@@H](C=O)NC(=O)[C@H](CC(C)C)NC(=O)[C@H](CC(C)C)NC(=O)OCc1ccccc1
Outline: as §1

pinometostat = compound: CC(C)N(C[C@H]1O[C@@H](n2cnc3c(N)ncnc32)[C@H](O)[C@@H]1O)[C@H]1C[C@@H](CCc2nc3cc(C(C)(C)C)ccc3[nH]2)C1 [pinometostat]
Outline: as §1

[5] = compound: CC1=C(C(CC(=O)N1)C2=CC=C(C=C2)C(F)(F)F)C(=O)NC3=C(C=C4C(=C3)C=NN4)F
Outline: as §1

[6] = compound: CC1=C(C2=C(C=C1)C(=O)C3=CC=CC=C3N2CCCN)C
Outline: as §1

[7] = compound: CC1=C(C=C(C=C1)NC(=O)C2=CC(=CC=C2)C(C)(C)C#N)NC3=CC4=C(C=C3)N=CN(C4=O)C
Outline: as §1

[8] = compound: CC1=C(C=C(C=C1)NC(=O)C2=CC(=CC=C2)N(C)C)NC(=O)C3=CC=C(C=C3)O
Outline: as §1

[9] = compound: CC1=CC=C(C=C1)SC2=C3C=C(SC3=CN=C2)C(=O)N
Outline: as §1

[10] = compound: CC1=NC(=CC=C1)C2=C(N=C(N2)C(C)(C)C)C3=CC4=NC=CN=C4C=C3
Outline: as §1

Nexturastat A = compound: CCCCN(Cc1ccc(C(=O)NO)cc1)C(=O)Nc1ccccc1 [Nexturastat A]
Outline: as §1

vemurafenib = compound: CCCS(=O)(=O)Nc1ccc(F)c(C(=O)c2c[nH]c3ncc(-c4ccc(Cl)cc4)cc23)c1F [vemurafenib]
Outline: as §1

[11] = compound: CCCS(=O)(=O)Nc1ccc(F)c(C(=O)c2c[nH]c3ncc(Cl)cc23)c1F
Outline: as §1

[12] = compound: CCCc1cc(C)[nH]c(=O)c1CNC(=O)c1cc(-c2ccnc(N3CCN(C)CC3)c2)cc2c1cnn2C(C)C
Outline: as §1

givinostat = compound: CCN(CC)Cc1ccc2cc(COC(=O)Nc3ccc(C(=O)NO)cc3)ccc2c1 [givinostat]
Outline: as §1

barasertib = compound: CCN(CCCOc1ccc2c(Nc3cc(CC(=O)Nc4cccc(F)c4)[nH]n3)ncnc2c1)CCOP(=O)(O)O [barasertib]
Outline: as §1

Measured: log2 fold change

GPR107 (UniProt Q5VW38)
inactive: IRAK-1-4 Inhibitor I 0.102 | ibrutinib 0.013 | [1] -0.035 | ralimetinib -0.05 | [2] -0.04 | [3] 0.098 | [4] -0.008 | pinometostat 0.017 | [5] -0.008 | [6] -0.007 | [7] -0.047 | [8] -0.015 | [9] -0.033 | [10] -0.005 | Nexturastat A 0.048 | vemurafenib -0.012 | [11] -0.014 | [12] -0.014 | givinostat 0.187 | barasertib 0.001

GPD1L (UniProt Q8N335)
inactive: IRAK-1-4 Inhibitor I 0.011 | ibrutinib 0.065 | [1] -0.122 | ralimetinib -0.028 | [2] 0.002 | [3] 0.034 | [4] 0.025 | pinometostat -0.038 | [5] 0.002 | [6] 0.065 | [7] -0.021 | [8] -0.015 | [9] 0.016 | [10] 0 | Nexturastat A -0.121 | vemurafenib 0.034 | [11] -0.023 | [12] -0.03 | givinostat -0.024 | barasertib 0.051

GNPTG (UniProt Q9UJJ9)
inactive: IRAK-1-4 Inhibitor I -0.012 | ibrutinib 0.026 | [1] -0.034 | ralimetinib -0.048 | [2] 0.07 | [3] -0.047 | [4] 0.006 | pinometostat 0.037 | [5] 0.005 | [6] -0.015 | [8] 0.017 | [10] -0.127 | Nexturastat A -0.173 | [12] -0.022 | givinostat 0.006 | barasertib 0.008

GRSF1 (UniProt Q12849)
inactive: IRAK-1-4 Inhibitor I -0.118 | ibrutinib 0.063 | [1] -0.122 | ralimetinib -0.009 | [2] -0.069 | [3] -0.241 | [4] 0.038 | pinometostat 0.099 | [5] 0.017 | [6] -0.494 | [7] 0.094 | [8] 0.016 | [9] 0.072 | [10] -0.051 | Nexturastat A 0.336 | vemurafenib 0.005 | [11] 0.059 | [12] 0.046 | givinostat 0.028 | barasertib 0.013

GINS4 (UniProt Q9BRT9)
inactive: IRAK-1-4 Inhibitor I 0.002 | ibrutinib 0.046 | [1] 0.01 | ralimetinib -0.009 | [2] 0.017 | [3] 0.006 | [4] 0.063 | pinometostat -0.089 | [5] 0.029 | [6] 0.023 | [7] 0.144 | [8] -0.01 | [9] 0 | [10] 0.04 | Nexturastat A 0.05 | vemurafenib 0.072 | [11] -0.006 | [12] -0.007 | givinostat 0.003 | barasertib 0.042

GOT2 (UniProt P00505)
inactive: IRAK-1-4 Inhibitor I 0.029 | ibrutinib 0.005 | [1] -0.005 | ralimetinib -0.035 | [2] 0.019 | [3] 0.076 | [4] -0.018 | pinometostat -0.065 | [5] 0.006 | [6] 0.001 | [7] -0.017 | [8] 0.018 | [9] 0.047 | [10] 0.003 | Nexturastat A -0.017 | vemurafenib 0.008 | [11] -0.031 | [12] -0.02 | givinostat -0.024 | barasertib 0.001

GRHPR (UniProt Q9UBQ7)
inactive: IRAK-1-4 Inhibitor I 0.059 | ibrutinib 0.019 | [1] 0.033 | ralimetinib -0.017 | [2] -0.02 | [3] -0.007 | [4] -0.012 | pinometostat -0.004 | [5] -0.018 | [6] -0.008 | [7] -0.053 | [8] 0.027 | [9] -0.005 | [10] 0.018 | Nexturastat A -0.123 | vemurafenib 0.018 | [11] -0.002 | [12] 0.012 | givinostat 0.012 | barasertib 0.01

GPN3 isoform 2 (UniProt Q9UHW5)
inactive: IRAK-1-4 Inhibitor I 0 | ibrutinib -0.036 | [1] 0.002 | ralimetinib 0.061 | [2] 0.026 | [3] 0.037 | [4] -0.069 | pinometostat -0.04 | [5] 0.034 | [6] -0.009 | [7] -0.037 | [8] -0.001 | [9] 0.094 | [10] -0.001 | Nexturastat A -0.051 | vemurafenib -0.08 | [11] -0.016 | [12] 0.014 | givinostat -0.019 | barasertib 0.003
